Data taken from patent publication US20240165108A1, “NOVEL USE” (GlaxoSmithKline Intellectual Property Development Limited, priority 2022, published 2024).

Test system: human hair follicles
Test: RNA sequencing of ex vivo cultured hair follicles
Assay type: cell-based
Settings: healthy donors, 24 hours, 3 μM succinate
Procedure: RNA extraction, sequencing and analysis were performed as follows; RNA from n=2-3 hair follicles per group was extracted using […]® PicoPure® RNA Isolation Kit (ThermoFisher) including a Dnase digestions step using the Rnase-Free Dnase Set from Qiagen and stored at −80 degrees Celsius until analysed. RNA concentration, purity and integrity were assessed before sequencing. Sequencing was performed on a NovaSeq 6000 using 2×100 bp read length with an output of approximately 30 M clusters (6 Gb per sample). Demultiplexing of the sequencing reads was performed with Illumina bcl2fastq (2.20).
Briefly, DESeq2 first creates a pseudo-reference sample (row-wise geometric mean) and calculates the ratio of each sample to this reference. Then, the normalization factor for each sample (size factor) is calculated using the median value of all ratios for a given sample. Normalized count values are created by dividing each raw count value in a given sample by that sample's normalization factor. Finally, DESeq2 calculates p values and adjusted p values for genes of two groups by allowing the shrinkage of the log 2 fold changes when the information for a gene is low (low counts or high dispersion values). For manual calculation of fold change (FC) between two groups, the ratio of the normalized read counts was used. […]

O=C([O-])CCC(=O)[O-].[Na+].[Na+] [Succinate, Sodium succinate]
genes significantly upregulated (p <0.05, FC greater than 2): 28
genes significantly downregulated (p <0.05, FC less than 0.5): 44
